Some of the results follow. Shown are side measurements of this screen, not its main read-out; they come without a call. Most of these compounds were active or inconclusive in the main read-out, so they are no random draw. The note in brackets gives the kind of curve behind each potency; many fits are weak.

Consider 38 compounds from PubChem BioAssay AID2685 (National Center for Advancing Translational Sciences (NCATS), 2010).

A short description of the experiment: qHTS Assay for Lipid Storage Modulators in Drosophila S3 Cells.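 On cell number change: cells counted by Cell Tracker Red CMTPX staining in the red channel.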 The conditions noted are these: BODIPY lipid droplet fluorescence, 18-24 h; for cell number change: measured here: cell count max response, cells fed with added oleic acid. The method, boiled down: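 Drosophila S3 cells got compounds at several concentrations plus oleic acid (400 uM solution). Laser-scanning cytometry with 488 nm excitation read lipid droplets at 500-530 nm and cells at 575-640 nm. Percent activity was relative to 20 uM Triacsin C.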

Where [1] appears, read: measured here: lipid fluorescence (Fed channel) AC50, cells fed with added oleic acid.
[2] abbreviates: measured here: cell number channel AC50, cells fed with added oleic acid.

As to `CCSc1cnn(-c2ccccc2)c(=O)c1SCC`, the AC50 under setting [1] is 0.651 µM [falling, single point].

`CN(C(=O)COC(=O)c1ccc(Cl)c(S(=O)(=O)N2CCCCC2)c1)C1(C#N)CCCCC1`: the cell number change amounted to 9.87%. Further, the AC50 under setting [2] is 6.51 µM [falling, single point].

Turning to `COc1cc(C(=O)N2CC(C)OC(C)C2)c([N+](=O)[O-])cc1OC` (stereo not drawn), the cell number change is -53.6%. The AC50 under setting [2] was 14.6 µM [falling, partial curve, poor fit]. Turning to `COc1ccc(C2(c3ccc(OC)cc3)NC(=O)N(CC(=O)N(C)C)C2=O)cc1`, the cell number change was found to be 10.4%. Also, the AC50 under setting [1] was 29.1 µM [rising, single point]. As to `Cc1nnc(N(C(=O)c2cnccn2)c2ccccc2)s1`, the cell number change was determined as 14.5%. Moreover, under setting [1], the AC50 is 6.51 µM [rising, single point]. On to `Cc1ccc(S(=O)(=O)N(C)c2ccc(OC(=O)CN3C(=O)NC4(CCCC4)C3=O)cc2)cc1C`, for which the cell number change was found to be 4.75%. Further, the AC50 under setting [1] was 16.4 µM [falling, single point]. Take `O=C(CNCc1ccccn1)Nc1ccc([N+](=O)[O-])cc1C(=O)Nc1ccccc1F`: the cell number change worked out at 21%. The AC50 under setting [1] is 6.51 µM [falling, single point].

With `CN(C)C=C1C(=O)c2ccccc2C1=O`, the cell number change was 2.92%. On to `CCc1ccccc1NC(=O)N[C@H](C(=O)O)C(C)C`, for which the cell number change amounted to 36.7%. Further, under setting [2], the AC50 is 1.16 µM [rising, full curve, poor fit]. Further, the AC50 under setting [1] was 3.66 µM [falling, full curve]. Regarding `O=C(CCN1CCN(c2ccccc2F)CC1)Nc1cccc(F)c1`, the cell number change amounted to 10.2%. Also, the AC50 under setting [2] is 0.731 µM [rising, full curve, poor fit]. Besides, the AC50 under setting [1] was 29.1 µM [falling, single point]. In the case of `C=CCc1ccccc1OCC(O)CN1CCN(C(=O)OCC)CC1` (stereo not drawn), the cell number change is -24.9%.

As for `O=C(COC(=O)CNC(=O)c1ccccc1Cl)Nc1ncc(C(F)(F)F)cc1Cl`, the cell number change came out at 50.3%. Moreover, under setting [2], the AC50 is 3.26 µM [rising, full curve]. For `Cc1cc(-c2ccc(C(C)C)c(S(=O)(=O)N3CCN(c4ccccc4)CC3)c2)on1`, the cell number change worked out at 33.1%. Besides, under setting [2], the AC50 was 32.6 µM [rising, single point]. As for `O=C(Nc1ccc(Br)cc1)c1cccc(-n2cnnn2)c1`, the cell number change is 7.26%. For the same compound, under setting [1], the concentration at half-maximal activity (AC50) was 29.1 µM [falling, single point]. Regarding `O=C(NCCCN1CCCC1=O)c1cccc(NS(=O)(=O)c2ccc(Br)cc2)c1`, the cell number change came out at 92%. Further, the AC50 under setting [2] was 13 µM [rising, partial curve]. Take `COc1ccc(Cl)cc1C(=O)Nc1ccc(Br)c(C)n1`: the cell number change was 27%. Regarding `CC1=C([N+](=O)[O-])C(c2ccc(Cl)cc2)NC(=O)N1C` (stereo not drawn), the cell number change was -5.61%. As for `O=C1OC(CC(=O)N(Cc2nnc(-c3ccccc3Cl)o2)C2CC2)c2ccccc21` (stereo not drawn), the cell number change is -29.4%. Further, the AC50 under setting [1] was 0.00461 µM [falling, full curve, poor fit]. Turning to `CC(=O)Nc1cc(C(=O)CSc2nnc(C3CC3)n2C2CC2)ccc1O`, the cell number change stood at 41.2%. The AC50 under setting [2] is 29.1 µM [rising, single point]. The AC50 under setting [1] is 29.1 µM [rising, single point]. On to `COCCNC(=O)Cn1cc(C(=S)N2CCOCC2)c2ccccc21`, for which the cell number change is -39.2%. In addition, the AC50 under setting [2] was 29.1 µM [falling, single point]. Turning to `O=[N+]([O-])c1cccc(S(=O)(=O)c2ccc(NCCOCCO)c([N+](=O)[O-])c2)c1`, the cell number change is 9.91%. Moreover, the AC50 under setting [1] is 0.58 µM [rising, single point]. With `COc1ccc(/C=C2\SC(=O)N(CC(=O)NC3C=CS(=O)(=O)C3)C2=O)cc1` (stereo not drawn), the cell number change was determined as 20.2%. For the same compound, the AC50 under setting [1] was 13 µM [rising, partial curve]. For `CCOC(=O)c1c(NC(=S)NC(=O)c2cnn(CC)c2)sc2c1CCC(C)C2` (stereo not drawn), the cell number change was -17.8%. In addition, the AC50 under setting [1] is 0.651 µM [rising, single point]. With `O=C(O)Cn1c(=O)c2c(c3ccccc31)CCC2`, the cell number change worked out at 17.4%. Further, the AC50 under setting [1] is 1.64 µM [falling, partial curve, poor fit].

In the case of `Cc1cc(Nc2cccc(Cl)c2)nc(NCc2ccccc2)n1`, the AC50 under setting [1] is 6.51 µM [falling, single point]. On the same count and under the same terms, for `COc1ccc(Cl)cc1C(=O)NNC(=O)CCNC(C)=O` the value was 0.103 µM [falling, partial curve, poor fit]. As for `COc1ccc(CCNC(=O)c2ccc3c(c2)OCO3)cc1`, the cell number change was 0.901%. In addition, the AC50 under setting [1] was 29.1 µM [rising, single point]. As to `Cc1ccc(-c2cc(-c3cccc(F)c3)n[nH]2)c(O)c1`, the cell number change was -56.7%. Under setting [2], the AC50 was 29.1 µM [falling, single point]. The AC50 under setting [1] is 2.59 µM [rising, partial curve]. Regarding `COCCc1nc2ccc(C(=O)N3CCCCC3COC)cc2o1` (stereo not drawn), the cell number change came to 9.17%.

As to `O=c1[nH][nH]c(-c2ccccc2)c1C=Nc1ccc(C(F)(F)F)cc1`, the cell number change is -51.6%. The AC50 under setting [2] was 29.1 µM [falling, single point]. As to `CC(C)C[C@H](NC(=O)c1[nH]cnc1C(=O)N[C@@H](Cc1ccccc1)C(=O)OC(C)(C)C)C(=O)OCc1ccccc1`, the cell number change was determined as 25.1%. Further, under setting [1], the AC50 is 10.3 µM [falling, partial curve]. In the case of `CCNC(=O)COc1ccc2ccccc2c1`, the cell number change was -27.7%. Under setting [1], the AC50 is 0.0058 µM [falling, full curve, poor fit]. On to `Cc1noc(C)c1COC(=O)/C=C/c1ccc(Cl)cc1`, for which the half-maximal activity concentration (AC50) is 5.17 µM [falling, single point] under setting [2] and 3.66 µM [falling, partial curve] under setting [1]. Consider `CSc1ccccc1C(=O)NC1CC2CCC1C2` (stereo not drawn), for which the half-maximal activity concentration (AC50) reads like this: under setting [2], 0.103 µM [falling, full curve, poor fit]; under setting [1], 2.31 µM [falling, single point]. Consider `NC(=O)C1CCN(C(=O)c2ccc([N+](=O)[O-])cc2NC(=O)c2cccs2)CC1`, for which the cell number change is -29.5%. Besides, the concentration at half-maximal activity (AC50) under setting [1] was 6.51 µM [falling, single point]. In the case of `CN(C)CCNC(=O)c1[nH]nc2c1CCc1ccccc1-2`, the cell number change is 13.1%. In addition, the AC50 under setting [1] was 0.651 µM [falling, full curve, poor fit]. On to `COC(=O)[C@H](Cc1ccccc1)NC(=O)NCCc1ccc(OC)cc1`, for which the cell number change was 43.2%. Besides, the AC50 under setting [2] was 1.84 µM [rising, full curve]. In addition, the AC50 under setting [1] is 29.1 µM [rising, single point]. As for `CCOc1cccc2cc(C(=O)OCC(=O)Nc3c(C)cccc3CC)c(=O)oc12`, the cell number change is 68%. For the same compound, the AC50 under setting [2] was 20.6 µM [rising, single point].
